PubChem BioAssay AID686937, Drosophila RNAi Screening Center, 2013
The screen tested about 23,000 reagents; shown is an unselected part of those with a known target gene and a result. 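Reduced-secretion tags in replicate 1 do not always agree with the z-scores; no criterion for assigning the tags was given.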 Reagents against one gene are numbered here. A plus sign joins genes that one reagent is predicted to hit. Not given: the amount of reagent.

Aim: 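Genes whose loss weakens secretory pathway function in fly cells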 (primary screen)
System: Drosophila S2 cells expressing secreted horseradish peroxidase
Knock-down reagent: long dsRNA against Drosophila genes
Duration: about 5.5 days (5 days dsRNA, then 12 h reporter induction)
Challenge: reporter expression induced after 5 days of dsRNA, read 12 h later; inducer not stated
Read-out: 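Chemiluminescent measurement of peroxidase in the medium 12 h after reporter induction, following 5 days of dsRNA, given as a z-score per plate; higher means more secretion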
Reading the numbers: z-score: higher = more reporter secreted into medium

How did the screen score Chd64?
z-score, replicate 1: 0.27; z-score, replicate 2: 0.24

For serp #1, how do the results read?
z-score, replicate 1: 0.27; z-score, replicate 2: 0.41

What is on record for serp #2?
z-score, replicate 1: 0.34; z-score, replicate 2: 0.42

With Tsp42Ec, how do the results read?
z-score, replicate 1: 0.3; z-score, replicate 2: 0.28

With asRNA:Eig63F-2 + Eip63F-1, what does the deposit list?
z-score, replicate 1: 0.02; z-score, replicate 2: 1.22

How did the screen score CG15145?
z-score, replicate 1: -0.38; z-score, replicate 2: -0.35

Which result is listed for Cdk5?
z-score, replicate 1: 0.55; z-score, replicate 2: 0.42

With CG34357 #1, how do the results read?
z-score, replicate 1: 0.22; z-score, replicate 2: 0.27

What is on record for CG34357 #2?
z-score, replicate 1: -0.28; z-score, replicate 2: -1.1

Which result is listed for CG34357 #3?
z-score, replicate 1: 0.21; z-score, replicate 2: 0.19

With CG33090, how do the results read?
z-score, replicate 1: -0.12; z-score, replicate 2: 0.1

With CG12360 (retired record), what was measured?
z-score, replicate 1: 0.41; z-score, replicate 2: 0.3

Targets above whose gene name starts with C or c:
Chd64 → z-score, replicate 1: 0.27; z-score, replicate 2: 0.24
CG15145 → z-score, replicate 1: -0.38; z-score, replicate 2: -0.35
Cdk5 → z-score, replicate 1: 0.55; z-score, replicate 2: 0.42
CG34357 #1 → z-score, replicate 1: 0.22; z-score, replicate 2: 0.27
CG34357 #2 → z-score, replicate 1: -0.28; z-score, replicate 2: -1.1
CG34357 #3 → z-score, replicate 1: 0.21; z-score, replicate 2: 0.19
CG33090 → z-score, replicate 1: -0.12; z-score, replicate 2: 0.1
CG12360 (retired record) → z-score, replicate 1: 0.41; z-score, replicate 2: 0.3

The listing continues.
How did the screen score Arp8?
z-score, replicate 1: 0.36; z-score, replicate 2: 0.46

What is on record for CG7714?
z-score, replicate 1: 0.37; z-score, replicate 2: 0.48

For TfAP-2, what does the deposit list?
z-score, replicate 1: -0.02; z-score, replicate 2: -0.08

With etaTry, what was measured?
z-score, replicate 1: 0.21; z-score, replicate 2: 0.13

What did the screen give for Nepl19?
z-score, replicate 1: 0.57; z-score, replicate 2: 0.46

How did the screen score CG17666?
z-score, replicate 1: 0.24; z-score, replicate 2: 0.08

What is on record for Pus7?
z-score, replicate 1: 0.03; z-score, replicate 2: 0.23

How did the screen score Obp56i?
z-score, replicate 1: 0.38; z-score, replicate 2: 0.05

With CG18171, what was measured?
z-score, replicate 1: 0.34; z-score, replicate 2: 0.14

For Pdk, how do the results read?
z-score, replicate 1: 0.42; z-score, replicate 2: 0.33

With CG7544, how do the results read?
z-score, replicate 1: 0.9; z-score, replicate 2: 0.58

For CG7548, how do the results read?
z-score, replicate 1: 0.41; z-score, replicate 2: 0.36

How did the screen score CG8300?
z-score, replicate 1: -0.29; z-score, replicate 2: -0.32

How did the screen score obst-H #1?
z-score, replicate 1: 0.61; z-score, replicate 2: 0.47

How did the screen score obst-H #2?
z-score, replicate 1: 0.42; z-score, replicate 2: 0.39
